This passage reports binding results from article doi:10.1101/2025.09.16.676506.

Sequences of proteins named here, by UniProt entry; tags and fusion partners are left off. A change or cut given only in a name is not applied to a line headed by its entry.
UniProt P26648: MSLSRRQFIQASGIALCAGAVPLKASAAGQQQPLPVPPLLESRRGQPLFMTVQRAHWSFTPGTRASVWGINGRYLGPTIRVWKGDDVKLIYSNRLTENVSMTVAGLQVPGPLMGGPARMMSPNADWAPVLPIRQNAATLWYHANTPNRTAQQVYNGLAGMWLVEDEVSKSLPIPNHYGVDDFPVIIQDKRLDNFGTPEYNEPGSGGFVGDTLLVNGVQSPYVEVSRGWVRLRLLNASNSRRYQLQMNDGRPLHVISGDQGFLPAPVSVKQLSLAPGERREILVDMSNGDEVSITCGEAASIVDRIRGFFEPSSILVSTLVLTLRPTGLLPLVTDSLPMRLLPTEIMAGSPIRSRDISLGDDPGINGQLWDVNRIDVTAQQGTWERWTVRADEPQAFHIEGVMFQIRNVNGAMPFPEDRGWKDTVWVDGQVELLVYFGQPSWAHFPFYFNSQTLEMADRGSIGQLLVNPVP

No constants are given. Whether binding was seen depends on the method and setting. Binding can be weak; no strength is given. Sequences can lack the tags named with a protein.

This assay addresses T1, TatC with a C-terminal 3XFLAG tag (E. coli) (UniProt P69423).
T1 sequence: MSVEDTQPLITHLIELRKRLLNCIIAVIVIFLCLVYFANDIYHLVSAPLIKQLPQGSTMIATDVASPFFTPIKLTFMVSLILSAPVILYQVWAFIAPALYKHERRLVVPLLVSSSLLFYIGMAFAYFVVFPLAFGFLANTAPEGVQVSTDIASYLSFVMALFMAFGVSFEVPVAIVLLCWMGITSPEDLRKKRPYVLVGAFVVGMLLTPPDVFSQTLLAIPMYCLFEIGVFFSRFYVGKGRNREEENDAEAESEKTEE
Description: cryo-EM structure.

As for SufI–8×His (from UniProt P26648), the binding entry is recorded as “binds”.
